This experiment concerns the target Calpain-1. Kind of experiment: enzyme inhibition assay.

No constants are given. Whether binding was seen depends on the method and setting. A result given as binding can be weak or reduced; the word gives no strength.

B1: … (SEQ ID NO:80) (peptide)
peptide: IPPRYCELLC
modifications: Cys6 and Cys10 (i,i+4) linked by alpha,alpha'-meta-xylylene
For the molecule B1, the binding entry is reported as “binds”.

B2: … (SEQ ID NO:67) (peptide)
peptide: LGKREVTIPPKYCELLC
modifications: Cys13 and Cys17 (i,i+4) linked by alpha,alpha'-meta-xylylene
As to B2, the binding result is “binds”.

Values taken from US20150133367A1.
